The other results are listed elsewhere or left out. The main result of the screen is listed elsewhere. These columns were measured beside it and carry no call. Most of these compounds were active or inconclusive in the main read-out, so they are no random draw. Potencies come from curve fits of mixed quality, noted in brackets.
Test: qHTS Assay for Modulators of Lamin A Splicing
Details: HeLa LMNA splicing GFP/RFP minigene ratio, 48 h
Method in brief: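 Read-out is the ratio of GFP to DsRed2 object intensity, acquired by 488 nm laser-scanning cytometry on HeLa lamin A-EGFP minigene reporter cells. Compound incubation 48 hrs at 37 °C in Opti-MEM with 2% FBS; DMSO 0.5% final.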

[1] = measured here: RFP viability control channel
[2] = measured here: GFP splicing reporter channel

Question: Which AC50 [1] does the source give for `CC1(C)Cc2c(cnn2-c2ccccc2)-c2c1c1ccccc1n2CC(O)CCl` (centres undefined) here?
Answer: 11.2 µM [rising, partial curve]

Question: With `CCNC(=S)N=Nc1c(O)n(Cc2ccc(Cl)cc2)c2ccccc12` as the molecule, how does the AC50 [2] read?
Answer: 7.94 µM [rising, partial curve, poor fit]

Question: What about the AC50 [1] of the same molecule?
Answer: 7.08 µM [rising, partial curve, poor fit]

Question: For `COc1ccc(-c2nc3ccccc3o2)cc1NC(=O)COc1cc(C)cc(C)c1`, which AC50 [2] is on record?
Answer: 35.5 µM [falling, partial curve, poor fit]

Question: What about the AC50 [1] of the same molecule?
Answer: 44.7 µM [falling, partial curve, poor fit]

Question: What does the source list for `COc1ccc(OC)c(-n2cc3c(=O)n(C)c(=O)n(C)c3c2)c1`?
Answer: AC50 [2]: 0.00398 µM [rising, full curve, poor fit]; AC50 [1]: 0.00501 µM [rising, full curve, poor fit]

Question: Which AC50 [1] does the source give for `Cc1cc(C)c2c(c1)NC(c1cc3c(cc1Br)OCO3)C1CC=CC21` (centres undefined) here?
Answer: 12.6 µM [rising, partial curve, poor fit]

Question: Which AC50 [2] does the source give for `CN(C)c1ccc(-c2cc(-n3ccnc3)ncn2)cc1` here?
Answer: 35.5 µM [rising, single point]

Question: What about the AC50 [1] of the same molecule?
Answer: 35.5 µM [rising, single point]

Question: Which results are given for `CN(C)c1ccc(/C=C/C(=O)c2ccc3c(c2)OCCO3)cc1[N+](=O)[O-]`?
Answer: AC50 [2]: 35.5 µM [falling, single point]; AC50 [1]: 35.5 µM [falling, single point]

Question: For `CCOC(=O)c1ccc(N=C2SC(C(=O)NCCc3ccccc3)CC(=O)N2C)cc1` (centres undefined), which AC50 [1] is on record?
Answer: 12.6 µM [falling, partial curve, poor fit]

Question: Which AC50 [1] does the source give for `CCCn1c(NCc2cc(OC)ccc2OC)nc2ccccc21` here?
Answer: 28.2 µM [rising, partial curve, poor fit]

Question: Which AC50 [2] does the source give for `COc1ccc(O)c(CNc2ccccc2F)c1` here?
Answer: 0.0708 µM [rising, single point]

Question: Which AC50 [2] does the source give for `COc1cc(C(=O)NC2(C(F)(F)F)C(=O)NC(C)=C2C#N)cc(OC)c1OC` (centres undefined) here?
Answer: 1 µM [rising, full curve, poor fit]

Question: And the AC50 [1]?
Answer: 1.41 µM [rising, full curve, poor fit]

Question: Which AC50 [1] does the source give for `Cc1cc(NC(=O)Nc2ccc3c(ccn3C)c2)sn1` here?
Answer: 6.31 µM [falling, partial curve, poor fit]

Question: For `COc1ccccc1-n1cnc2cc(NCc3ccco3)ccc21`, which AC50 [1] is on record?
Answer: 2.82 µM [rising, single point]

Question: With `O=C(O)c1ccc(O)c(N2C(=O)Nc3ccccc3N2O)c1` as the molecule, how does the AC50 [1] read?
Answer: 6.31 µM [falling, partial curve, poor fit]

Question: With `COCc1c(C#N)c(NCCc2ccccc2)nc(C)c1[N+](=O)[O-]` as the molecule, how does the AC50 [1] read?
Answer: 28.2 µM [falling, single point]

Question: Which AC50 [2] does the source give for `O=S(=O)(Nc1ccc2c(c1)OCCO2)c1ccc2oc3ccccc3c2c1` here?
Answer: 12.6 µM [rising, partial curve, poor fit]

Question: And the AC50 [1]?
Answer: 11.2 µM [rising, partial curve]

Question: Which AC50 [2] does the source give for `COc1ccc(N2CC(C(=O)NCCS(=O)(=O)N3CCN(c4ccccc4)CC3)CC2=O)cc1` (centres undefined) here?
Answer: 4.47 µM [falling, full curve, poor fit]

Question: What about the AC50 [1] of the same molecule?
Answer: 5.62 µM [falling, full curve]

Question: Which results are given for `O=C(CCCN1CCN(c2ccccn2)CC1)c1ccc(F)cc1`?
Answer: AC50 [2]: 1.26 µM [falling, full curve]; AC50 [1]: 1.58 µM [falling, full curve]

Question: For `O=C(Nc1cc(Sc2ccccn2)cc([N+](=O)[O-])c1)c1cccc(F)c1`, which AC50 [1] is on record?
Answer: 20 µM [rising, single point]

Question: With `CC1CCN(c2ccc(C(=O)NCCc3ccccc3)cn2)CC1` as the molecule, how does the AC50 [2] read?
Answer: 31.6 µM [rising, single point]

Question: What about the AC50 [1] of the same molecule?
Answer: 35.5 µM [rising, single point]

Question: Which AC50 [2] does the source give for `CCc1cccc(NC(=O)c2cnc(N3CCOCC3)c3ccccc23)c1` here?
Answer: 0.794 µM [falling, full curve]

Question: And the AC50 [1]?
Answer: 0.0224 µM [falling, full curve]

Question: With `CCOC(=O)c1cc(-c2ccccc2)n(CCCC(=O)Nc2ccc(C)c(Cl)c2)c1C` as the molecule, how does the AC50 [1] read?
Answer: 31.6 µM [rising, single point]

Question: For `COc1cc(-c2nnc(SCc3ccccc3Cl)o2)cc(OC)c1OC`, which AC50 [1] is on record?
Answer: 12.6 µM [rising, single point]

Question: For `CCOC(=O)c1scc(-c2ccccc2)c1S(=O)(=O)Nc1ccccc1OC`, which AC50 [2] is on record?
Answer: 7.08 µM [rising, partial curve]

Question: Which AC50 [2] does the source give for `CCCCN(C)CCC(=O)Nc1ccc2c(c1)CCC2` here?
Answer: 11.2 µM [falling, single point]

Question: Which AC50 [1] does the source give for `CC1Oc2ccccc2OC1(O)c1ccc2ccccc2n1` (centres undefined) here?
Answer: 22.4 µM [rising, single point]

Question: Which results are given for `COc1ccc(NS(=O)(=O)c2cc(NC(=O)c3cccs3)ccc2N2CCCC2)cc1`?
Answer: AC50 [2]: 10 µM [falling, partial curve, poor fit]; AC50 [1]: 8.91 µM [falling, partial curve, poor fit]

Question: With `Cn1c(=O)n(C)c2cc([N+](=O)[O-])c(N3CCN(C(=O)c4ccccc4)CC3)cc21` as the molecule, how does the AC50 [1] read?
Answer: 12.6 µM [rising, partial curve]

Question: Which AC50 [1] does the source give for `Cn1cnc([N+](=O)[O-])c1Sc1ccc(Br)cc1` here?
Answer: 10 µM [rising, partial curve]

Question: With `COc1ccc(/C=N/n2c(SC)nnc2-c2ccccc2)c(OC)c1OC` as the molecule, how does the AC50 [1] read?
Answer: 7.94 µM [rising, partial curve]

Question: With `CSCC[C@H](NC(=O)NC1CCCC1)C(=O)O` as the molecule, how does the AC50 [2] read?
Answer: 0.0158 µM [rising, full curve, poor fit]

Question: What about the AC50 [1] of the same molecule?
Answer: 0.0158 µM [rising, full curve, poor fit]

Question: For `Cc1cc(C)c(NC(=O)CSc2nc3ccccc3c3nc(-c4ccccc4)nn23)c(C)c1`, which AC50 [2] is on record?
Answer: 0.501 µM [falling, partial curve, poor fit]

Question: Which AC50 [2] does the source give for `CC1CCC(N2CC(=O)N(Cc3ccc4c(c3)OCO4)C(c3ccc(F)cc3)C2=O)CC1` (centres undefined) here?
Answer: 11.2 µM [rising, single point]

Question: And the AC50 [1]?
Answer: 14.1 µM [rising, single point]

Question: For `O=C(Nc1cccc([N+](=O)[O-])c1)c1ccc2c(c1)OCCO2`, which AC50 [2] is on record?
Answer: 15.8 µM [rising, partial curve]

Question: And the AC50 [1]?
Answer: 31.6 µM [rising, single point]
